PubChem BioAssay AID504793 | Drosophila RNAi Screening Center, 2011

- Assay: 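Whole-genome screen for parts of the DNA damage checkpoint at G2/M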 (primary screen)
- Cell system: Drosophila S2R+ cells
- Knock-down reagent: long dsRNA against Drosophila genes, about 0.25 µg dsRNA per well
- Time to read-out: 4 days of dsRNA, then 4 hours of drug before read-out
- Challenge: doxorubicin 0.5 µM for 4 hours to cause double-strand breaks, in cells also given a low, harmless dose of dsRNA against nbs to sensitise the assay
- Measurement: 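Per-well count of mitotic cells stained for phospho-histone H3 after doxorubicin exposure, used as mitotic index; counts are raw and not normalised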
- Direction: mitotic cells: higher = more cells in mitosis, weaker G2 arrest
- Active means: 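a call needs confirmation in secondary tests, with other dsRNAs and a check of mitotic timing without damage, not just a high primary count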
- Meaning of the calls: active = confirmed in follow-up tests; inactive = not confirmed
In all, the deposit lists about 23,000 reagents; below is a random part of those with a known target gene and a result. In the full data, 62 (0.27%) are marked active. 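Calls come from follow-up tests whose scores are not deposited, so confirmed genes may have low counts here; counts are not normalised per plate.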 Raw values are not corrected between plates.

BckdhA [DRSC16395]
- mitotic cells, replicate 1: 4
- call: inactive

CG8206 [DRSC20093]
- mitotic cells, replicate 1: 8
- call: inactive

tacc [DRSC12019]
- mitotic cells, replicate 1: 16
- call: inactive

tacc [DRSC12388]
- mitotic cells, replicate 1: 10
- call: inactive

tacc [DRSC29052]
- mitotic cells, replicate 1: 7
- call: inactive

Spn88Eb [DRSC16093]
- mitotic cells, replicate 1: 3
- call: inactive

CG14515 [DRSC14867]
- mitotic cells, replicate 1: 10
- call: inactive

CG5916 [DRSC15917]
- mitotic cells, replicate 1: 5
- call: inactive

CG3842 [DRSC18326]
- mitotic cells, replicate 1: 10
- call: inactive

CG3842 [DRSC26584]
- mitotic cells, replicate 1: 4
- call: inactive

CG9254 [DRSC01969]
- mitotic cells, replicate 1: 6
- call: inactive

lectin-29Ca [DRSC02635]
- mitotic cells, replicate 1: 4
- call: inactive

Drat [DRSC06600]
- mitotic cells, replicate 1: 6
- call: inactive

CG13223 [DRSC06344]
- mitotic cells, replicate 1: 13
- call: inactive

CG14011 [DRSC02343]
- mitotic cells, replicate 1: 6
- call: inactive

CG14011 [DRSC27954]
- mitotic cells, replicate 1: 8
- call: inactive

Uch-L5 [DRSC11314]
- mitotic cells, replicate 1: 6
- call: inactive

Uch-L5 [DRSC27736]
- mitotic cells, replicate 1: 1
- call: inactive

Rtnl2 [DRSC12609]
- mitotic cells, replicate 1: 7
- call: inactive

Rtnl2 [DRSC21655]
- mitotic cells, replicate 1: 8
- call: inactive

Rtnl2 [DRSC26022]
- mitotic cells, replicate 1: 6
- call: inactive

Reformatted: results already given
{"Target gene": "CG8206", "DRSC id": "DRSC20093", "mitotic cells, replicate 1": 8, "call": "inactive"}
{"Target gene": "tacc", "DRSC id": "DRSC12019", "mitotic cells, replicate 1": 16, "call": "inactive"}
{"Target gene": "tacc", "DRSC id": "DRSC12388", "mitotic cells, replicate 1": 10, "call": "inactive"}
{"Target gene": "tacc", "DRSC id": "DRSC29052", "mitotic cells, replicate 1": 7, "call": "inactive"}
{"Target gene": "Spn88Eb", "DRSC id": "DRSC16093", "mitotic cells, replicate 1": 3, "call": "inactive"}

Further reagents follow.
Gga [DRSC18260]
- mitotic cells, replicate 1: 3
- call: inactive

Gga [DRSC27761]
- mitotic cells, replicate 1: 5
- call: inactive

Ntf-2 [DRSC20552]
- call: inactive

Ntf-2 [DRSC25597]
- mitotic cells, replicate 1: 6
- call: inactive

CG34348 [DRSC19425]
- mitotic cells, replicate 1: 4
- call: inactive

CG34348 [DRSC19644]
- mitotic cells, replicate 1: 10
- call: inactive

meng [DRSC02134]
- mitotic cells, replicate 1: 13
- call: inactive

meng [DRSC28743]
- mitotic cells, replicate 1: 8
- call: inactive

CG30043 [DRSC06285]
- mitotic cells, replicate 1: 7
- call: inactive

NT5E-2 [DRSC06893]
- mitotic cells, replicate 1: 4
- call: inactive

CG15202 [DRSC19649]
- mitotic cells, replicate 1: 15
- call: inactive

CG13247 [DRSC11695]
- mitotic cells, replicate 1: 3
- call: inactive

Muc68Ca [DRSC10312]
- mitotic cells, replicate 1: 7
- call: inactive

Muc68Ca [DRSC10313]
- mitotic cells, replicate 1: 2
- call: inactive

Surf1 [DRSC11295]
- mitotic cells, replicate 1: 2
- call: inactive

Surf1 [DRSC11394]
- mitotic cells, replicate 1: 3
- call: inactive

Hmt-1 [DRSC15555]
- mitotic cells, replicate 1: 8
- call: inactive

CG6707 [DRSC10697]
- mitotic cells, replicate 1: 5
- call: inactive

CG10939 [DRSC06019]
- mitotic cells, replicate 1: 2
- call: inactive

CG10939 [DRSC21734]
- mitotic cells, replicate 1: 4
- call: inactive

CG6136 [DRSC15975]
- mitotic cells, replicate 1: 8
- call: inactive

L [DRSC06666]
- mitotic cells, replicate 1: 6
- call: inactive

L [DRSC06668]
- mitotic cells, replicate 1: 14
- call: inactive

L [DRSC29770]
- mitotic cells, replicate 1: 3
- call: inactive
